Assay type in all cases: cell-based
Assay [1] deals with Pseudomonas aeruginosa ATCC 27853. The assay can be described thus: disk diffusion assay. Further: key: R = resistant. As to conditions: 10 micrograms per disk; ciprofloxacin 5, vancomycin 30 micrograms per disk; 35° C. (In general: In agar diffusion tests the substance spreads into inoculated agar from a disc or well.)
In assay [2] the test system is Enterococcus faecalis ATCC 51299 (VRE). Description: microbroth dilution MIC. As to conditions: Table 15. (In general: In broth dilution the organism is exposed to a series of concentrations in liquid medium.)
The subject of assay [3] is E. faecalis 29212. The assay can be described thus: microbroth dilution MIC. As to conditions: Enterococcus faecalis, ATCC29212; Table 15; read-out: MIC Enterococcus faecalis ATCC 29212.

Here are results for two compounds from patent US7259004B1, “Endophytic streptomycetes from higher plants with biological activity” (Montana State University, priority 2002, dated 2007).

Values after ≈ are worked out from the molar mass of the structure shown.

Regarding `O=C(O)c1cn(C2CC2)c2cc(N3CCNCC3)c(F)cc2c1=O` [Ciprofloxacin, reference compound], in assay [1], the “diameter of the zone of inhibition, Pseudomonas aeruginosa ATCC 27853” value is reported as 30 mm.

As to `CN[C@H](CC(C)C)C(=O)N[C@H]1C(=O)N[C@@H](CC(N)=O)C(=O)N[C@H]2C(=O)N[C@H]3C(=O)N[C@H](C(=O)N[C@H](C(=O)O)c4cc(O)cc(O)c4-c4cc3ccc4O)[C@H](O)c3ccc(c(Cl)c3)Oc3cc2cc(c3O[C@@H]2O[C@H](CO)[C@@H](O)[C@H](O)[C@H]2O[C@H]2C[C@](C)(N)[C@H](O)[C@H](C)O2)Oc2ccc(cc2Cl)[C@H]1O` [Vancomycin, reference compound], the values for the MIC in assay [2] and in assay [3] were 4 µg/mL (≈ 2.76 µM) and 2 µg/mL (≈ 1.38 µM), respectively.
